Results on 42 sequences are retold here after PMC7819943, “Rice protein-binding microarrays: a tool to detect cis-acting elements near promoter regions in rice”.

The list shows a part of the results.

The target of this assay is T1, OsSMF1 (Oryza sativa, UniProt Q6ZLB0 1-436).
T1 sequence: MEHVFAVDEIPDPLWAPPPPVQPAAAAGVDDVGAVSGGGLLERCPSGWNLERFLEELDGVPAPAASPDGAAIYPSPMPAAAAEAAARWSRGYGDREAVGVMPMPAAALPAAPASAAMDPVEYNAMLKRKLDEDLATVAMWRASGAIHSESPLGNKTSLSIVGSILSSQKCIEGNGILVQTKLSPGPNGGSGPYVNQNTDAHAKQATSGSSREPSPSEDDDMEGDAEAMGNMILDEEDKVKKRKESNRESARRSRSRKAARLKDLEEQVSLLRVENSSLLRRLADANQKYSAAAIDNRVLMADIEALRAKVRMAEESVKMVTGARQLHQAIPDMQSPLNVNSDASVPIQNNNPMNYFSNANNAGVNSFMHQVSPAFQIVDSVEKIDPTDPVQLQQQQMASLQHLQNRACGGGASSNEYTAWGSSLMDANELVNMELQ
In words: protein-binding microarray (RPBM); PBS, 2% BSA, 51.3 ng/ul salmon testes DNA, 50 uM zinc acetate, 200 nM TF, 25 C, 1 h; high values mean tight binding. To be noted: protein: recombinant; tags: N-terminal polyhistidine and DsRed monomer fusion (pET32a); chain copies: 2; label: CyDye5-dUTP incorporated in the synthesized complementary strand; 3' TTTTT single-stranded linker to array surface; dsDNA, one strand shown. In outline:
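Using Ni–NTA, transcription factors fused N-terminally to polyhistidine and DsRed were purified after expression in E. coli BL21-CodonPlus. These were incubated at 200 nM with a blocked, double-stranded custom Agilent array for 1 h at 25 °C in a buffer containing 50 µM zinc acetate, and the array was washed. The binding signal is per-feature fluorescence intensity (arbitrary units) on an Axon 4000B scanner.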
“ATGATTCCACTCACGTGTTTGGTTTGTAGGATGTGACAATCGGAGTCACCTAGTGCAG”: the binding signal was 3220 fluorescence intensity (a.u.).
To “CGAGGATGCCGAGGTCGACGTCAACATCGTCCGCAGCCACCGGAGTCACCTAGTGCAG” belongs 4340 fluorescence intensity (a.u.); to “CTGAATGCCGTGCCACCACAGATGGGAGGCTGAGTCGGCGCGGAGTCACCTAGTGCAG”, 4670 fluorescence intensity (a.u.).
As for “AGTTCACCCATTGCAAAGCACATGACTCATACTAGATATCCGGAGTCACCTAGTGCAG”, the figure is 9880 fluorescence intensity (a.u.); as for “TGATATACGGTTCAGATAGAATGAAATTCACCGTGGGAATCGGAGTCACCTAGTGCAG”, 3190 fluorescence intensity (a.u.).
As for “CGCGCACGCCACGCCACGCCACGCCACGCCGCGCCACCTGCGGAGTCACCTAGTGCAG”, the figure is 5920 fluorescence intensity (a.u.); as for “CCGCCTAGTCTCATTGGAAACCACCTCATTAGTCATCCCACGGAGTCACCTAGTGCAG”, 3320 fluorescence intensity (a.u.); as for “AACATAACTGCCTAGTCAGGATGTAAAATATTTCCAAGGTCGGAGTCACCTAGTGCAG”, 3860 fluorescence intensity (a.u.).
For the sequence “GTTAAGAAAAGAAAACCACCGACGAGTCCATTCGTTTTCACGGAGTCACCTAGTGCAG”, the binding signal was 3280 fluorescence intensity (a.u.).
As for “TTGACAAGAGTAGAACAACAACAACATCATCATCATCTATCGGAGTCACCTAGTGCAG”, the figure is 3290 fluorescence intensity (a.u.); as for “AACCGGTCTTTCCGCCACCTCGGTACGTGTTCGACATGTTCGGAGTCACCTAGTGCAG”, 4170 fluorescence intensity (a.u.); as for “TGTTGTGCTGGTTGGTTCCAGATCTAACAGTGACAGTGCGCGGAGTCACCTAGTGCAG”, 4380 fluorescence intensity (a.u.).
As for “GTGGTTGACATGTGGACCTGGTCCTATATGTCAGTGGCTGCGGAGTCACCTAGTGCAG”, the figure is 3510 fluorescence intensity (a.u.); as for “CGAAGCCGCACGAAGGTGGTGGTGGTTGGTGGTAGGGTTTCGGAGTCACCTAGTGCAG”, 3190 fluorescence intensity (a.u.); as for “GGCTCTGGCAGCACAATTCAGTTCTTGTACTTGTGAAACACGGAGTCACCTAGTGCAG”, 18200 fluorescence intensity (a.u.).
As for “GTGAGAGCTCGGGATGTAGCGTGGCGTGGCGGCGCGGGTCCGGAGTCACCTAGTGCAG”, the figure is 4040 fluorescence intensity (a.u.); as for “GTTGTCAAATGAGTCAATTAGATATTTCCAACCCACACTACGGAGTCACCTAGTGCAG”, 4900 fluorescence intensity (a.u.).
Take “GTTACTCACATAATATCGTGGCAGGGAGGCATTGATGATGCGGAGTCACCTAGTGCAG”: the binding signal was 3580 fluorescence intensity (a.u.).
As for “TCCACCACCACCACCATGCATCACCACGTAGACAAATTCACGGAGTCACCTAGTGCAG”, the figure is 6060 fluorescence intensity (a.u.); as for “ATCTACTGATCTAGTCATCGATCCATGCATCCATCCATCACGGAGTCACCTAGTGCAG”, 6180 fluorescence intensity (a.u.).
On to “GATACACGCATCATCATCATCATCATCATCATCCGTACAACGGAGTCACCTAGTGCAG”, for which the binding signal was 4540 fluorescence intensity (a.u.).
Regarding “TCCTCCTCCCGCACAGATTCCGCAGTCGAGTCGCACTCCACGGAGTCACCTAGTGCAG”, the binding signal was 3470 fluorescence intensity (a.u.).
In the case of “GGCGCCGGGGTGGGGTGGTGCTGGAGCCACCGGAGGAGCGCGGAGTCACCTAGTGCAG”, the binding signal was 4510 fluorescence intensity (a.u.).
On to “CCACTAACCGGATCCATATATATTCGATTTTGGGTGGTGGCGGAGTCACCTAGTGCAG”, for which the binding signal is 3150 fluorescence intensity (a.u.).
To “TGTGGTTACTGTGTCGTTACTGTCTATATACCTCCCTGTTCGGAGTCACCTAGTGCAG” belongs 3160 fluorescence intensity (a.u.); to “AACTTTGATGTTTAACACGTAATGTTACTGATCAAGCTTTCGGAGTCACCTAGTGCAG”, 3600 fluorescence intensity (a.u.); to “GGGACCCAGGGTCGGGTTGCCAGTTCGGTCTGAATCATCGCGGAGTCACCTAGTGCAG”, 3600 fluorescence intensity (a.u.).
To “GATCGACGGAGAGGATCGAGGCGCGCGCTGACGTCAGCTCCGGAGTCACCTAGTGCAG” belongs 26300 fluorescence intensity (a.u.); to “ACGGATGTCATGGCGGCGTCGTGGCCCCTGTCGCGGCGTGCGGAGTCACCTAGTGCAG”, 3520 fluorescence intensity (a.u.); to “GAAATAATTAATCAATTAACGCTGATGTGTGAGCTGCGTACGGAGTCACCTAGTGCAG”, 6010 fluorescence intensity (a.u.).
For “AAAGTCAACGGTGTCAAATATTTTAAAACGGAGGGAGTATCGGAGTCACCTAGTGCAG”, the binding signal is 5540 fluorescence intensity (a.u.).
As for “TTTGAGTCCACATCATCACAGTACCCTACTCTTATACTCCCGGAGTCACCTAGTGCAG”, the binding signal was 14200 fluorescence intensity (a.u.).
To “AGGCTTAAAAGATTCATCTCGTAATTTACACGTAATCTGTCGGAGTCACCTAGTGCAG” belongs 4430 fluorescence intensity (a.u.); to “ATAAGCTCTCTATAAGAAATCCATGTCAGCATATTTTCCTCGGAGTCACCTAGTGCAG”, 15300 fluorescence intensity (a.u.); to “GTCAACACCGCTACGTCAACGTCATGTCAGTAAAACCTTTCGGAGTCACCTAGTGCAG”, 4300 fluorescence intensity (a.u.).
To “GAAAAGCTTCATTGTTGGCTTATCTATAAAATATATGATTCGGAGTCACCTAGTGCAG” belongs 3540 fluorescence intensity (a.u.); to “TAAATCCACACCACACCAGTATCTATCTTGGCTCTGGTTCCGGAGTCACCTAGTGCAG”, 3580 fluorescence intensity (a.u.); to “GTGATTTATCCGAGCAGAGTGGCGGCGGCTTCGCCGAGTACGGAGTCACCTAGTGCAG”, 39600 fluorescence intensity (a.u.).
As for “TGTTTGCATATAATATTGCCAGCTCAAGGATGACAAGTATCGGAGTCACCTAGTGCAG”, the figure is 3940 fluorescence intensity (a.u.); as for “GAGCGCGAGCTGCTCTCCTCTCCTCCCGCCCCGCGTCGCCCGGAGTCACCTAGTGCAG”, 11500 fluorescence intensity (a.u.); as for “TGATTTATTGGATGGATCTGAGATGACCTGTGATGTATTTCGGAGTCACCTAGTGCAG”, 3230 fluorescence intensity (a.u.).
Consider “CCGTGGAAGTGCGCGTGCGTCCGCTTGCGTGGTTTTGGAACGGAGTCACCTAGTGCAG”, for which the binding signal is 4210 fluorescence intensity (a.u.).
